{"sequences": {"note": "The chains behind the UniProt entries cited, without tags or fusion partners.", "UniProt P56477, whole entry": "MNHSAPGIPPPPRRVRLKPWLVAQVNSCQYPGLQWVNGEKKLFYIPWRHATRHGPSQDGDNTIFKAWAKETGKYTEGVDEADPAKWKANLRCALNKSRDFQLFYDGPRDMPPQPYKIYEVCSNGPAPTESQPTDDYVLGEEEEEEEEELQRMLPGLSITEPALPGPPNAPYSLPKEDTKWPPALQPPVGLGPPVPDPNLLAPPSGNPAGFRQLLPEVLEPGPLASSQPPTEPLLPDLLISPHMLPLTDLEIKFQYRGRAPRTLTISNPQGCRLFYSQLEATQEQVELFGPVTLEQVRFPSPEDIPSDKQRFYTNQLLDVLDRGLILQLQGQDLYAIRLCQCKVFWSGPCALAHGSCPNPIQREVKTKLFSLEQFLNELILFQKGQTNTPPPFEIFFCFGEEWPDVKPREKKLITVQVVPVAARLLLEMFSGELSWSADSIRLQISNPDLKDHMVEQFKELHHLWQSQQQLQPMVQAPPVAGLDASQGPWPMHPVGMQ", "UniProt P22366, whole entry": "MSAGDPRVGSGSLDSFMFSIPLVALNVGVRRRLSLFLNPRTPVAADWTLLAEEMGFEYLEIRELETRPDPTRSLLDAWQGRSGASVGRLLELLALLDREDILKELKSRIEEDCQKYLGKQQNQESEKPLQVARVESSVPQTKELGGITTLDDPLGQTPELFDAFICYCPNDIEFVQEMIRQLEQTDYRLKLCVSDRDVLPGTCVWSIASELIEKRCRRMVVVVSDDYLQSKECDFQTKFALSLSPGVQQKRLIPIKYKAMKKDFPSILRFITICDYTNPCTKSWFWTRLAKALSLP"}, "source": "paper doi:10.1101/2023.08.17.553795", "experiment_in_all_cases": "co-IP", "key": {"[1]": {"biological_target": "interferon regulatory factors 5 (IRF5) (mouse (endogenous in peritoneal lavage cells)) (UniProt P56477)"}, "[2]": {"biological_target": "T1, interferon regulatory factors 4 (IRF4) (mouse (endogenous in peritoneal lavage cells)) (UniProt Q64287)", "T1 sequence": "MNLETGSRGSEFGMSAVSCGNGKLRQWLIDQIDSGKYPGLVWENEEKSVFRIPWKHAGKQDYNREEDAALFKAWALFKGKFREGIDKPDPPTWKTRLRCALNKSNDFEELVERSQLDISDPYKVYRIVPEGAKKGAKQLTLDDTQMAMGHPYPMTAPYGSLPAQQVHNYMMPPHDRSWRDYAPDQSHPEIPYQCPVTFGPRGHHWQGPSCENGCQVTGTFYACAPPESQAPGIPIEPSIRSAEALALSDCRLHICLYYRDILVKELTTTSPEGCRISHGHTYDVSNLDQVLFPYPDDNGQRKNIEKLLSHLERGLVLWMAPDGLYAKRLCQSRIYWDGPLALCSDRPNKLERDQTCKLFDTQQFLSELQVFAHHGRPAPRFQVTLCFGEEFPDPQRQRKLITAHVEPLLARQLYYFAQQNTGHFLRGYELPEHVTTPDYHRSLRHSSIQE"}, "[3]": {"biological_target": "MyD88 (mouse (endogenous in peritoneal lavage cells)) (UniProt P22366)"}}, "note": "These are yes or no findings as the source states them, for the method shown. Binding seen in cells or lysates may run through a third protein. Some entries that bind do so weakly or less than the wild type.", "data": [{"substance": "MyD88 (from UniProt P22366 1-296)", "values": [{"measurement": "binding", "setting": "[1]", "result": "binds"}, {"measurement": "binding", "setting": "[2]", "result": "binds"}]}, {"substance": "interferon regulatory factors 5 (IRF5) (from UniProt P56477 1-497)", "values": [{"measurement": "binding", "setting": "[3]", "result": "binds"}]}]}
